Compound in the assay: CN[C@@H]1C[C@H]2O[C@@](C)([C@@H]1OC)n1c3ccccc3c3c4c(c5c6ccccc6n2c5c31)C(=O)NC4 [staurosporine]
Nature of the assay: log2 fold change of tryptic peptide abundance, ligand vs vehicle (limited proteolysis) (log2 ratio); higher = more trypsin-susceptible (destabilized). The note with it: ligand concentration: 20 uM; sample: K562 cleared lysate; digestion: 4 min, 22 C (HT-PELSA RT4min, Orbitrap Astral).

The chains behind the UniProt entries cited, without tags or fusion partners. Where a name states a change or a piece, a line headed by the entry shows the natural chain unless it says otherwise.
UniProt Q7KZF4: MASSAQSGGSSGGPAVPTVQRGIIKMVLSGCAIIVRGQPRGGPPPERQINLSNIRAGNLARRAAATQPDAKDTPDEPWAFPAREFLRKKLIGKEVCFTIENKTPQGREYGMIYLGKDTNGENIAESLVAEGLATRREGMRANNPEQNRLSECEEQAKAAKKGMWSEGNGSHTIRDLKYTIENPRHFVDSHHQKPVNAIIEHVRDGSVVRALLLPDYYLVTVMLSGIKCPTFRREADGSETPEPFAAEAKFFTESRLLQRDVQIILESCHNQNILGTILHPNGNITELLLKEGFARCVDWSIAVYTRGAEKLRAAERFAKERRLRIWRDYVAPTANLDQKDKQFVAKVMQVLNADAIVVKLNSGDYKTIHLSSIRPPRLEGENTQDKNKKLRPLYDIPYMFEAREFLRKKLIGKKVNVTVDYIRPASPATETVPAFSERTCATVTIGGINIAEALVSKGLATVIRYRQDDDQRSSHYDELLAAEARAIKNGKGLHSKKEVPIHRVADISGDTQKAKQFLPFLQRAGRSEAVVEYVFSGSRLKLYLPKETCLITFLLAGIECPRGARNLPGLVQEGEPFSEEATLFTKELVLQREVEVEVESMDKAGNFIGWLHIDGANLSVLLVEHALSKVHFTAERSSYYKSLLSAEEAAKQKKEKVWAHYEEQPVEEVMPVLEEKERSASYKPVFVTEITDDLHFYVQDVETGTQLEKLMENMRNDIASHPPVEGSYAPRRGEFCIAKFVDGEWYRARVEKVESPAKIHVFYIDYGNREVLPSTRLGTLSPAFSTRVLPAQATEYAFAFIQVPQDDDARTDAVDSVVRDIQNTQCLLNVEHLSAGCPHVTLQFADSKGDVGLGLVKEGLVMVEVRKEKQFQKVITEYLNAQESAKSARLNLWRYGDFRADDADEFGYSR
UniProt Q7L2K0: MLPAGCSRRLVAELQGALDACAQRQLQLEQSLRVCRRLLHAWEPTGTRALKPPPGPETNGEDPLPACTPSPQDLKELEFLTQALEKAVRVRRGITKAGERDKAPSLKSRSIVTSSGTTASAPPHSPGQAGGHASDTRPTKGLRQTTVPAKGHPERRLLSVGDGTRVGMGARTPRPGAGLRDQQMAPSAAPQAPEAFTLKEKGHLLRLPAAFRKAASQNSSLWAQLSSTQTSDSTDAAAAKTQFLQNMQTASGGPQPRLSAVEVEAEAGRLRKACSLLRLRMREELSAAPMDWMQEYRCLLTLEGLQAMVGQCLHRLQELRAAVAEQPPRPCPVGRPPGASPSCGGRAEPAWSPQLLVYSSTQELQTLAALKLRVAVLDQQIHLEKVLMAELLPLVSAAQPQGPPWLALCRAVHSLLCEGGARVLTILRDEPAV
UniProt Q86SG6: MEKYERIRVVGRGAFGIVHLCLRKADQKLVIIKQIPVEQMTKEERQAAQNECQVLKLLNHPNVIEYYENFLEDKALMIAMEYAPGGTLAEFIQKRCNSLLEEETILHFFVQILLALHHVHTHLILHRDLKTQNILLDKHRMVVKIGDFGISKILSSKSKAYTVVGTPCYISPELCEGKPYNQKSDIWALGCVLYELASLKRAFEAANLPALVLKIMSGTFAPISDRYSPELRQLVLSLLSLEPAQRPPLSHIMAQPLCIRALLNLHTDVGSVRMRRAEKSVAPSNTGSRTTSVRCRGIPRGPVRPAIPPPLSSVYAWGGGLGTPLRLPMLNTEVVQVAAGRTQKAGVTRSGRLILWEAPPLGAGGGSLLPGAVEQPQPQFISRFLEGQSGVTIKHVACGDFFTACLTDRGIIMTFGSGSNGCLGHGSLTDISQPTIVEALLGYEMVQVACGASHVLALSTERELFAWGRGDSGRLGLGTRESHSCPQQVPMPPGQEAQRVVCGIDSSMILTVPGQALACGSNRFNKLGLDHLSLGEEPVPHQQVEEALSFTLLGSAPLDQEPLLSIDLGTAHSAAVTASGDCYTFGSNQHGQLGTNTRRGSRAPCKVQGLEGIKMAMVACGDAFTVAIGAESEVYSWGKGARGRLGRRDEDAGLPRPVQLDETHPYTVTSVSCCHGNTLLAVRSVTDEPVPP
UniProt Q86SX6: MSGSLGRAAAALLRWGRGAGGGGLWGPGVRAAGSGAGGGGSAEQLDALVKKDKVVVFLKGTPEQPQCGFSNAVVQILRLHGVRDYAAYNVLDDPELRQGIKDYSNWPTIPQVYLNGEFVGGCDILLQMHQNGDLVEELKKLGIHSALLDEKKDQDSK
UniProt Q6ZTN6: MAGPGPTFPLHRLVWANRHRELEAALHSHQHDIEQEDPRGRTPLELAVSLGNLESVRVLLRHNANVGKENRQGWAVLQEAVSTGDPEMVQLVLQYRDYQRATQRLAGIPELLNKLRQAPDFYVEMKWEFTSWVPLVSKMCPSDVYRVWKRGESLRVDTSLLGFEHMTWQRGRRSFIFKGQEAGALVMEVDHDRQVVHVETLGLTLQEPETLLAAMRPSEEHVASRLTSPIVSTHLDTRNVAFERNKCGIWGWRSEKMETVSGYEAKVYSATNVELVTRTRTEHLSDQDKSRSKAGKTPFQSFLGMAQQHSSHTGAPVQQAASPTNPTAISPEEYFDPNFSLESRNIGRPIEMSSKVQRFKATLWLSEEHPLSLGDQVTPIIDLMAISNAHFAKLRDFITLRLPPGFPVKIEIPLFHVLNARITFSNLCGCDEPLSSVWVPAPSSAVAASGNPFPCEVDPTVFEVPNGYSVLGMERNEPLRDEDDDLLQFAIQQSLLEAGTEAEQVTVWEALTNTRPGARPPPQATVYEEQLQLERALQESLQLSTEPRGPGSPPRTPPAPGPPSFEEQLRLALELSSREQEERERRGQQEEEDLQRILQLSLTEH
UniProt Q7L8W6: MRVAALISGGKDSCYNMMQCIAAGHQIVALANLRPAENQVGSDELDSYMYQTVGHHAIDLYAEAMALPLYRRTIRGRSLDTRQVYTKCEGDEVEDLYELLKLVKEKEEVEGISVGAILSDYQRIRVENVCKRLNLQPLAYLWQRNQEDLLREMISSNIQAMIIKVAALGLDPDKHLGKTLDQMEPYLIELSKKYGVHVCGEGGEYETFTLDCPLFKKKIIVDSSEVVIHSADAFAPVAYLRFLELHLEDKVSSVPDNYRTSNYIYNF
UniProt Q7L5Y6, whole entry: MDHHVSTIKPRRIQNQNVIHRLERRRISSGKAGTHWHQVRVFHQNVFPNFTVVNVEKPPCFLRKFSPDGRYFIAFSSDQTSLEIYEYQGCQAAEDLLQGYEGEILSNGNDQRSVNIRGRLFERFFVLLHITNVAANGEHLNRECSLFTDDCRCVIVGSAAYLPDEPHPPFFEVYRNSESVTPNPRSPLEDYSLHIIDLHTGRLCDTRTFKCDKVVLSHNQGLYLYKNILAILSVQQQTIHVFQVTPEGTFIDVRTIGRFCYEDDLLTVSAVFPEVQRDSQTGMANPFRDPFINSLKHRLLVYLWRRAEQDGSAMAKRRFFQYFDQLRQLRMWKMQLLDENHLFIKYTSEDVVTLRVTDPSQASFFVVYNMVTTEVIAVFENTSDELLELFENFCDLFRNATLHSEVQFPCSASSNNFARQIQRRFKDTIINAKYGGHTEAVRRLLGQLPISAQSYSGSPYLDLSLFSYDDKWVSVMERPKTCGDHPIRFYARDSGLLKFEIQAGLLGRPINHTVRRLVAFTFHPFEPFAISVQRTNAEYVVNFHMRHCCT
UniProt Q7Z4H3: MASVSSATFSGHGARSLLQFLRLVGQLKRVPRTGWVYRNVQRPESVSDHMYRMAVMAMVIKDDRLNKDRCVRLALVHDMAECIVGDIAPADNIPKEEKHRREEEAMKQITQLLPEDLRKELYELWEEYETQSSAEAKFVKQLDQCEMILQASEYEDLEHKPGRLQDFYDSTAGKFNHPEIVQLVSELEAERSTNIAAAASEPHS
UniProt Q86T82: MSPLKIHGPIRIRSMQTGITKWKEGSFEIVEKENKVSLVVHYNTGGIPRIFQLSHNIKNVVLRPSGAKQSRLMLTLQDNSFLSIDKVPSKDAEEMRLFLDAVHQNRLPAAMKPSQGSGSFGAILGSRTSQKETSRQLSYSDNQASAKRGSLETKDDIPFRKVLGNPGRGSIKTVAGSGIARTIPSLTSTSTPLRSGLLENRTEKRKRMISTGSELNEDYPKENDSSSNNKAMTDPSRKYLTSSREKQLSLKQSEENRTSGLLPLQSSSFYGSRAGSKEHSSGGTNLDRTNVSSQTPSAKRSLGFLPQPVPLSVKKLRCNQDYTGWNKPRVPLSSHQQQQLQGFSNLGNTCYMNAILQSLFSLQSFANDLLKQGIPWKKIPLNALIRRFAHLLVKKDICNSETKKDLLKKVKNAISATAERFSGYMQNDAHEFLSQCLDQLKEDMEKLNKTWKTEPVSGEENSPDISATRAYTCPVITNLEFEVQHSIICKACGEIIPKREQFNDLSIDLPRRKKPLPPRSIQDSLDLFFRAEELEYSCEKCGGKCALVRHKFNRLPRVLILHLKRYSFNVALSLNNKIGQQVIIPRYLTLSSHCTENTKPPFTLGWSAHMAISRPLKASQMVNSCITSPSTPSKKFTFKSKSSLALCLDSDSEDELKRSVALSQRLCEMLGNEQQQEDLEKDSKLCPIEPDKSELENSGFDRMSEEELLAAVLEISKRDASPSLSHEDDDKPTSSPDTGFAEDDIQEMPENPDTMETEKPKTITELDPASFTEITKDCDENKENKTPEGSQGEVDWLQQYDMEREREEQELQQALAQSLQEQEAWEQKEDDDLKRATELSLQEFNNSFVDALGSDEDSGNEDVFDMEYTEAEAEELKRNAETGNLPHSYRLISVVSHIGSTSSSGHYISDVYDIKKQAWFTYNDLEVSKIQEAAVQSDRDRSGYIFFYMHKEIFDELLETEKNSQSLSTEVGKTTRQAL
UniProt Q6ZN04: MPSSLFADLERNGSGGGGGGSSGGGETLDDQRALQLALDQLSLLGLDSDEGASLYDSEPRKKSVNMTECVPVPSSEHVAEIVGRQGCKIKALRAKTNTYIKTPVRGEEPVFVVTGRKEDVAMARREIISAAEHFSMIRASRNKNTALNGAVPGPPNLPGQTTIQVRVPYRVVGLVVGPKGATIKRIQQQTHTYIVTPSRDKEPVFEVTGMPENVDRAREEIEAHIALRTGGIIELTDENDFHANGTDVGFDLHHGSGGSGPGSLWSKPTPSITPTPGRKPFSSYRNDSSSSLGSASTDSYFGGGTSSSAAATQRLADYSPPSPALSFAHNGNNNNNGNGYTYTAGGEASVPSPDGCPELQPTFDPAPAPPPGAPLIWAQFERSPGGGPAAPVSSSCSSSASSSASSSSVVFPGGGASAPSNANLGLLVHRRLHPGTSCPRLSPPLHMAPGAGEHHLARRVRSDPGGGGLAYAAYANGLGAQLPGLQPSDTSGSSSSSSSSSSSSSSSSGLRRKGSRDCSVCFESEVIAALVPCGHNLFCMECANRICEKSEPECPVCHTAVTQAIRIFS
UniProt Q76FK4: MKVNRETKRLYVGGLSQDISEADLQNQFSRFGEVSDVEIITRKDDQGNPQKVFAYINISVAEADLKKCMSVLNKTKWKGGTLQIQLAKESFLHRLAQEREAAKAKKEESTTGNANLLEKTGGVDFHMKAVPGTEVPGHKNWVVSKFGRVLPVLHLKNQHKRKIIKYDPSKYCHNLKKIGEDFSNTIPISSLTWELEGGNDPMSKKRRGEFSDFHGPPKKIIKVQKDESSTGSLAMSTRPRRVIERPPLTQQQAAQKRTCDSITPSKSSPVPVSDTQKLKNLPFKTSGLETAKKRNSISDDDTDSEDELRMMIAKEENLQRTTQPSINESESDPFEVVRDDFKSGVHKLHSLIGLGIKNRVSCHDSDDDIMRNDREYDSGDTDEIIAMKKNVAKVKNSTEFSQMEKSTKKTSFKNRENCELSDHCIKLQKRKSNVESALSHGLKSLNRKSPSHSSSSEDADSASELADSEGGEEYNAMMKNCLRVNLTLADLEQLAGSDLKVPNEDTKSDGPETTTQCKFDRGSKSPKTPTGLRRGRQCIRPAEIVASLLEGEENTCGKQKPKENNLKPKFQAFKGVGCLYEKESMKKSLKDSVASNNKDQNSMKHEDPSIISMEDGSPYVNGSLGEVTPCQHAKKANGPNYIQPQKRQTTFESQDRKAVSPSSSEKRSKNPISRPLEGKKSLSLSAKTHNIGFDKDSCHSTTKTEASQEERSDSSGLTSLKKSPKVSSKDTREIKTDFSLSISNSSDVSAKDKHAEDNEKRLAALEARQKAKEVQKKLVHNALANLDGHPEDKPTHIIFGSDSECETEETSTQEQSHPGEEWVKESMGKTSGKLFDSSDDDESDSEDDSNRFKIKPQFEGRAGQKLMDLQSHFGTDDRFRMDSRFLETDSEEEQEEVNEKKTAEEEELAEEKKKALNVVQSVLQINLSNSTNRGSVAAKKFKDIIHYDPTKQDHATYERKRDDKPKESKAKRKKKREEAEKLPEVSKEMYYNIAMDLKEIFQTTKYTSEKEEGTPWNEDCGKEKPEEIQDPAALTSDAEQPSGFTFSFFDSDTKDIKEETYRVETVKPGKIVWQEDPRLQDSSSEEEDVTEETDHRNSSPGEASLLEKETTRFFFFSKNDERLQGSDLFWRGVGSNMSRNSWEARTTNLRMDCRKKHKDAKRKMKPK

The list shows a part of the results. Most values lie at the level of the controls, where differences are scatter.

Consider “AKNA (peptide sequence: LGYEAGLSLEGHGNTSPMALGHGQAR, peptide start residue: 144) (UniProt Q7Z591)”, for which the log2 fold change was -0.515. In the case of “DNAH12 (peptide sequence: KENELMAK, peptide start residue: 601) (UniProt Q6ZR08)”, the log2 fold change came to 0.0226. The value for “SND1 (peptide sequence: EVEVEVESMDK, peptide start residue: 593) (UniProt Q7KZF4)” was -0.148.

Regarding “UniProt Q86UE6 (peptide sequence: LQALAPDLFHGLR, peptide start residue: 149)”, the log2 fold change is -0.113. The value for “BCDIN3D (peptide sequence: LLCCDIDPVLVKR, peptide start residue: 106) (UniProt Q7Z5W3)” was 0.28. As for “TEDC2 (peptide sequence: LSAVEVEAEAGR, peptide start residue: 258) (UniProt Q7L2K0)”, the log2 fold change is 0.712. The value for “MBOAT2 (peptide sequence: KNTHENIQLSQSK, peptide start residue: 472) (UniProt Q6ZWT7)” was 0.865. Regarding “NEK8 (peptide sequence: SVAPSNTGSR, peptide start residue: 280) (UniProt Q86SG6)”, the log2 fold change was determined as 0.151. Under “MON1A (peptide sequence: SYEDLTESEDGAASGDSHK, peptide start residue: 153) (UniProt Q86VX9)” stands -0.31; under “NUFIP2 (peptide sequence: NLSSDEATNPISR, peptide start residue: 110) (UniProt Q7Z417)”, -0.486. The value for “PBRM1 (peptide sequence: IILEPMDLK, peptide start residue: 561) (UniProt Q86U86)” was 0.156; that for “DPP9 (peptide sequence: EALLLLSWK, peptide start residue: 98) (UniProt Q86TI2)” was -0.0953. In the case of “UniProt Q7Z6W7 (peptide sequence: WHPDKNPENKEEAER, peptide start residue: 30)”, the log2 fold change came out at 0.14. The value for “GLRX5 (peptide sequence: DYAAYNVLDDPELR, peptide start residue: 84) (UniProt Q86SX6)” was 0.257; that for “ANKRD13D (peptide sequence: RGQQEEEDLQR, peptide start residue: 586) (UniProt Q6ZTN6)” was 0.115.

Regarding “FAM122B (peptide sequence: RIDFTPVSPAPSPTR, peptide start residue: 108) (UniProt Q7Z309)”, the log2 fold change stood at 0.256. Regarding “UniProt Q7L8W6 (peptide sequence: VENVCKR, peptide start residue: 126)”, the log2 fold change is -0.303. The value for “DET1 (peptide sequence: MDHHVSTIKPR, peptide start residue: 1) (UniProt Q7L5Y6)” was 1.02; that for “KANSL1 (peptide sequence: LVRPNSIVPLSK, peptide start residue: 604) (UniProt Q7Z3B3)” was 0.374; that for “UniProt Q86UY6 (peptide sequence: LGDPLEAFPVFK, peptide start residue: 35)” was 0.506. For the target “HDDC2 (peptide sequence: MAVMAMVIKDDRLNK, peptide start residue: 53) (UniProt Q7Z4H3)”, the log2 fold change was 0.231. Under “MED13L (peptide sequence: LLAQPNKR, peptide start residue: 672) (UniProt Q71F56)” stands 0.123; under “USP37 (peptide sequence: TNVSSQTPSAK, peptide start residue: 289) (UniProt Q86T82)”, -0.353; under “SH3BP5L (peptide sequence: GLSDHVSLDGQELGTR, peptide start residue: 356) (UniProt Q7L8J4)”, -0.734. Take “MEX3B (peptide sequence: DKEPVFEVTGMPENVDR, peptide start residue: 200) (UniProt Q6ZN04)”: the log2 fold change was -0.488. With “SDCCAG8 (peptide sequence: LTYEEKCEIEESQLK, peptide start residue: 230) (UniProt Q86SQ7)”, the log2 fold change was -0.438. In the case of “EPM2AIP1 (peptide sequence: MEVDEALVFRPEWTQR, peptide start residue: 10) (UniProt Q7L775)”, the log2 fold change was determined as 0.379. The value for “NOL8 (peptide sequence: NSSPGEASLLEK, peptide start residue: 1097) (UniProt Q76FK4)” was -0.196.
